Source: PubChem BioAssay AID743454 (Peter MacCallum Cancer Centre, 2014)
The deposit covers about 18,000 reagents; below is an unselected part. 450 of all reagents (2.5%) count as active. 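Single biological run; no consistent viability z cut-off exists, so the class columns, not z-scores, define the calls.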

- Purpose: 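Search for knock-downs that restore vorinostat killing in resistant colon cancer cells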 (primary screen)
- System: human HCT116-VR colon cancer cells, selected for vorinostat resistance
- Knock-down reagent: siRNA pool against human genes, 40 nM siRNA pool
- Duration: vorinostat for 24 h, read-out about 72 h after transfection
- Conditions: vorinostat at 2.5 µM final
- Measurement: 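Cell viability by CellTiter-Fluor and caspase 3/7 activity by luminescence, each scaled to mock wells per plate, duplicates averaged, then robust z-scored over all plates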
- Direction: viability robust z-score: higher = more viable cells than screen typical; caspase robust z-score: higher = more caspase 3/7 activity than screen typical
- Active means: 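a knock-down is a hit when classed RV1 or RV2 for lowered viability, or CA1 or CA2 for caspase activation; those lethal without drug were dropped; hits were retested singly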

The first 6 entries as a preview:
| gene symbol | viability hit class | caspase hit class | viability robust z-score | caspase robust z-score | Outcome |
| --- | --- | --- | --- | --- | --- |
| THOC7 (THO complex subunit 7) | no change | no change | 0.04 | 4.02 | inactive |
| TRIM2 (tripartite motif containing 2) | no change | no change | -0.37 | -0.24 | inactive |
| SF3B3 (splicing factor 3b subunit 3) | no change | no change | -3.67 | 3.98 | inactive |
| OR8H3 (olfactory receptor family 8 subfamily H member 3) | no change | no change | -0.34 | 1.23 | inactive |
| CHMP2B (charged multivesicular body protein 2B) | no change | no change | -0.62 | -0.98 | inactive |
| ERI1 (exoribonuclease 1) | no change | no change | 0.74 | -0.94 | inactive |

Main list, repeating the preview:
| gene symbol | viability hit class | caspase hit class | viability robust z-score | caspase robust z-score | Outcome |
| --- | --- | --- | --- | --- | --- |
| THOC7 (THO complex subunit 7) | no change | no change | 0.04 | 4.02 | inactive |
| TRIM2 (tripartite motif containing 2) | no change | no change | -0.37 | -0.24 | inactive |
| SF3B3 (splicing factor 3b subunit 3) | no change | no change | -3.67 | 3.98 | inactive |
| OR8H3 (olfactory receptor family 8 subfamily H member 3) | no change | no change | -0.34 | 1.23 | inactive |
| CHMP2B (charged multivesicular body protein 2B) | no change | no change | -0.62 | -0.98 | inactive |
| ERI1 (exoribonuclease 1) | no change | no change | 0.74 | -0.94 | inactive |
| TEX9 (testis expressed 9) | no change | no change | 1.11 | 0.01 | inactive |
| FIBP (FGF1 intracellular binding protein) | no change | no change | 2 | -0.66 | inactive |
| PPP1R3D (protein phosphatase 1 regulatory subunit 3D) | no change | no change | -0.54 | 0.46 | inactive |
| DNAJB5 (DnaJ heat shock protein family (Hsp40) member B5) | no change | no change | -0.36 | 0.92 | inactive |
| TTI2 (TELO2 interacting protein 2) | no change | no change | 0.4 | -0.57 | inactive |
| RDH11 (retinol dehydrogenase 11) | no change | no change | -1.38 | 0.98 | inactive |
| ATF1 (activating transcription factor 1) | no change | no change | 0.7 | 0.33 | inactive |
| ZNF592 (zinc finger protein 592) | no change | no change | -1.61 | -0.22 | inactive |
| SLC25A31 | no change | no change | 0.79 | -0.27 | inactive |
| IL4I1 (interleukin 4 induced 1) | no change | no change | -0.61 | 4.08 | inactive |
| ASB16-AS1 (ASB16 antisense RNA 1) | no change | no change | -0.81 | -0.84 | inactive |
| P4HA1 (prolyl 4-hydroxylase subunit alpha 1) | no change | no change | 1.19 | -0.36 | inactive |
| CELA2A (chymotrypsin like elastase 2A) | no change | no change | -1.94 | 2.31 | inactive |
| MS4A2 (membrane spanning 4-domains A2) | no change | no change | -1.09 | 0.48 | inactive |
| EIF1AX (eukaryotic translation initiation factor 1A X-linked) | RV2 (reduced viability) | no change | -2.91 | 0.47 | active |
| TRIM40 (tripartite motif containing 40) | no change | no change | 0.09 | 2.48 | inactive |
| SEC63 (SEC63 protein translocation regulator) | no change | no change | 0.66 | -0.74 | inactive |
| IDH2 (isocitrate dehydrogenase (NADP(+)) 2) | no change | no change | 1.2 | -0.18 | inactive |
| CSNK1D (casein kinase 1 delta) | no change | no change | 0.78 | -0.52 | inactive |
| TAL2 (TAL bHLH transcription factor 2) | no change | no change | -0.04 | -0.28 | inactive |
| PHF3 (PHD finger protein 3) | no change | no change | -0.92 | -1.06 | inactive |
| C19orf73 (chromosome 19 open reading frame 73) | no change | no change | 0.9 | 0.05 | inactive |
| ODF2 (outer dense fiber of sperm tails 2) | no change | no change | 0.28 | 2.25 | inactive |
| FBXO7 (F-box protein 7) | no change | no change | -0.9 | 2.52 | inactive |
| PCDHGA11 (protocadherin gamma subfamily A, 11) | no change | no change | -0.32 | 0.21 | inactive |
| CAMKK2 (calcium/calmodulin dependent protein kinase kinase 2) | no change | no change | -1.19 | 0.22 | inactive |
| CACNG5 (calcium voltage-gated channel auxiliary subunit gamma 5) | no change | no change | 0.47 | 0.18 | inactive |
| DCLK2 (doublecortin like kinase 2) | no change | no change | -2.78 | 0.72 | inactive |
| OR13H1 (olfactory receptor family 13 subfamily H member 1) | no change | no change | -0.24 | 0.49 | inactive |
| NUP133 (nucleoporin 133) | RV2 (reduced viability) | CA2 (caspase activation) | -3.43 | 5.65 | active |
| OR1L6 (olfactory receptor family 1 subfamily L member 6) | no change | no change | -1.21 | 0.42 | inactive |
| RAB3D (RAB3D, member RAS oncogene family) | no change | no change | 1.06 | -0.41 | inactive |
| DCAF8L1 (DDB1 and CUL4 associated factor 8 like 1) | no change | no change | 0.55 | -0.88 | inactive |
| CYP1A1 (cytochrome P450 family 1 subfamily A member 1) | no change | no change | -0.74 | -0.27 | inactive |
| NR1H3 (nuclear receptor subfamily 1 group H member 3) | no change | no change | 0.36 | 0.78 | inactive |
| VCX3B (variable charge X-linked 3B) | no change | no change | -0.4 | 0.79 | inactive |
| H3-5 (H3.5 histone) | no change | no change | 0.12 | 0.18 | inactive |
| ZNF713 (zinc finger protein 713) | no change | no change | -0.74 | -0.83 | inactive |
| IFT57 (intraflagellar transport 57) | no change | no change | 0.6 | -0.74 | inactive |
| COG2 (component of oligomeric golgi complex 2) | no change | no change | -0.16 | -0.45 | inactive |
| ATG9B (autophagy related 9B) | no change | no change | 0.38 | -0.76 | inactive |
| C10orf71 (chromosome 10 open reading frame 71) | no change | no change | 0 | -0.59 | inactive |
| SSX4B (SSX family member 4B) | no change | no change | -0.36 | -0.68 | inactive |
| IRF5 (interferon regulatory factor 5) | no change | no change | 0.6 | 0.7 | inactive |
| LSM1 (LSM1 homolog, mRNA degradation associated) | no change | no change | -0.12 | -0.13 | inactive |
| DPP8 (dipeptidyl peptidase 8) | no change | no change | 0.11 | 1.29 | inactive |
| TESC (tescalcin) | no change | no change | -0.57 | 1.42 | inactive |
| CDC26 (cell division cycle 26) | no change | no change | -1.5 | 1.79 | inactive |
| PRLHR (prolactin releasing hormone receptor) | no change | no change | -0.1 | 0.84 | inactive |
| ARFGAP2 (ARF GTPase activating protein 2) | no change | no change | 1.04 | 1.6 | inactive |
| ELL (elongation factor for RNA polymerase II) | no change | no change | 0.24 | -0.22 | inactive |
